We go through three molecules from PMC2873905.

The target in experiment [1] is T1, mouse usherin C-terminal fragment (5053-5193 aa), yeast two-hybrid fusion (mouse) (UniProt Q2QI47).
T1 sequence: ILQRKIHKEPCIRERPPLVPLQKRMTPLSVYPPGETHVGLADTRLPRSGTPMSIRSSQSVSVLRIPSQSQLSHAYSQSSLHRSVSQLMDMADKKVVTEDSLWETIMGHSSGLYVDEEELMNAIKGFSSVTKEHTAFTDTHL
The experiment in a line: two-hybrid; co-transformation of pGBKT7 and pGADT7 constructs in yeast; growth on SD-4 (-Leu, -Trp, -Ade, -His) plates means interaction; done in two orientations.

The target of experiment [2] is T2, GST-fused mutant C-terminal mouse usherin without PDZ-binding domain (5053-5186 aa) (mouse) (UniProt Q2QI47).
T2 sequence: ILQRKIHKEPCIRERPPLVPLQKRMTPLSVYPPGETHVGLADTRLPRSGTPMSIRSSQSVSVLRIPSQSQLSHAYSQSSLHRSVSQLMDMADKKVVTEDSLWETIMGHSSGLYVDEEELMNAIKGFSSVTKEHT
Briefly: pull-down; GST-fused usherin fragments expressed in E. coli, incubated with mouse retinal lysate and glutathione sepharose beads for 2 hours at 4°C; washed three times with lysis buffer (50 mM Tris-HCl pH8.0, 150 mM NaCl, 0.5% TritonX-100, 5 mM EDTA, 1 mM DTT); whirlin detected by blot.

In experiment [3] the target is T3, GST-fused intact C-terminal mouse usherin (5053-5193 aa) (mouse) (UniProt Q2QI47).
T3 sequence: T1 sequence
The experiment is described as above.

Results are given in words; binding and its absence hold for the method and conditions named. For some of these results: In cells and extracts the contact can be indirect. Some binding calls cover weakened binding; strength is not graded here. Sequences can lack the tags named with a protein.

B1: mouse whirlin (full-length, 3-907 aa), yeast two-hybrid fusion (protein, UniProt Q80VW5-3 3-907)
chain: AQLDGLSVSSSSTGSLGSAAAAAGGGGGAGLRLLSANVRQLHQALTALLSEPEREQFTHCLNAYHARRNVFDLVRTLRVLLDSPVKRRLLPMLRLVIPRSDQLLFDQYTAEGLYLPATTPYRQPAWAAPDGAGPGEVRLVSLRRAKAHEGLGFSIRGGSEHGVGIYVSLVEPGSLAEKEGLRVGDQILRVNDKSLARVTHAEAVKALKGSKKLVLSVYSAGRIPGGYVTNHIYTWVDPQGRSTSPPSSLPQPHGSTLRQREDDRRSTLHLLQSGDEKKVNLVLGDGRSLGLTIRGGAEYGLGIYITGVDPGSEAESSGLKVGDQILEVNGRSFLNILHDEAVKLLKSSRHLILTVKDVGRLPHARTTVDQTKWIASSRIGESVANSAGFPGDHTEEGTSKPGFYKGPAGSQVTLSSLGNQTRALLDDQARHLLTEQERATMMYYLAQYRGGTISVEAMVMALFELLNTHAKFSLLSEVRSIISPQDLDRFDHLVLRREIESMKARQPPGPGVGDTYSMVSYSDTGSSTGSHGTSTTVSSARNTLDLEGTGETTQGSTNALPDVSVDDVKSPSEDLPGIKPPPPPPPLAQGHDRLLGQPRKPGREDPAPLSSAAHSGIVFSAPRNRSPPPGTAPTPGPSSAQDSPSSPIYASISHANPSSRKPLDTHLALVNQHPIGPFPRVQSPPHLKSPPAETPGAGACLPPPSPSEHPDAVGANQHFVLVEVHRPDSEPDVNEVRALPQTRTASTLSQLSDSGQTLSEDSGVDAGETEASTSGRGRQTASAKNKNGKEQPRTERTAEGANKPPGLLEPTSTLVRVRKSAATLGIAIEGGANTRQPLPRIVTIQRGGSAHNCGQLKVGHVILEVNGQTLRGKEHKEAARIIAEAFKTKERDYIDFLVTEFNVML
As for B1, the binding result in experiment [1] was “binds”.

B2: mouse whirlin N-terminus (3-472 aa), yeast two-hybrid fusion (domain or fragment, UniProt Q80VW5-3 3-472)
chain: AQLDGLSVSSSSTGSLGSAAAAAGGGGGAGLRLLSANVRQLHQALTALLSEPEREQFTHCLNAYHARRNVFDLVRTLRVLLDSPVKRRLLPMLRLVIPRSDQLLFDQYTAEGLYLPATTPYRQPAWAAPDGAGPGEVRLVSLRRAKAHEGLGFSIRGGSEHGVGIYVSLVEPGSLAEKEGLRVGDQILRVNDKSLARVTHAEAVKALKGSKKLVLSVYSAGRIPGGYVTNHIYTWVDPQGRSTSPPSSLPQPHGSTLRQREDDRRSTLHLLQSGDEKKVNLVLGDGRSLGLTIRGGAEYGLGIYITGVDPGSEAESSGLKVGDQILEVNGRSFLNILHDEAVKLLKSSRHLILTVKDVGRLPHARTTVDQTKWIASSRIGESVANSAGFPGDHTEEGTSKPGFYKGPAGSQVTLSSLGNQTRALLDDQARHLLTEQERATMMYYLAQYRGGTISVEAMVMALFELLNTHA
In the case of B2, in experiment [1], the binding result is “binds”.

B3: endogenous whirlin from mouse retinal lysate (protein, UniProt Q80VW5-3 1-907)
chain: MNAQLDGLSVSSSSTGSLGSAAAAAGGGGGAGLRLLSANVRQLHQALTALLSEPEREQFTHCLNAYHARRNVFDLVRTLRVLLDSPVKRRLLPMLRLVIPRSDQLLFDQYTAEGLYLPATTPYRQPAWAAPDGAGPGEVRLVSLRRAKAHEGLGFSIRGGSEHGVGIYVSLVEPGSLAEKEGLRVGDQILRVNDKSLARVTHAEAVKALKGSKKLVLSVYSAGRIPGGYVTNHIYTWVDPQGRSTSPPSSLPQPHGSTLRQREDDRRSTLHLLQSGDEKKVNLVLGDGRSLGLTIRGGAEYGLGIYITGVDPGSEAESSGLKVGDQILEVNGRSFLNILHDEAVKLLKSSRHLILTVKDVGRLPHARTTVDQTKWIASSRIGESVANSAGFPGDHTEEGTSKPGFYKGPAGSQVTLSSLGNQTRALLDDQARHLLTEQERATMMYYLAQYRGGTISVEAMVMALFELLNTHAKFSLLSEVRSIISPQDLDRFDHLVLRREIESMKARQPPGPGVGDTYSMVSYSDTGSSTGSHGTSTTVSSARNTLDLEGTGETTQGSTNALPDVSVDDVKSPSEDLPGIKPPPPPPPLAQGHDRLLGQPRKPGREDPAPLSSAAHSGIVFSAPRNRSPPPGTAPTPGPSSAQDSPSSPIYASISHANPSSRKPLDTHLALVNQHPIGPFPRVQSPPHLKSPPAETPGAGACLPPPSPSEHPDAVGANQHFVLVEVHRPDSEPDVNEVRALPQTRTASTLSQLSDSGQTLSEDSGVDAGETEASTSGRGRQTASAKNKNGKEQPRTERTAEGANKPPGLLEPTSTLVRVRKSAATLGIAIEGGANTRQPLPRIVTIQRGGSAHNCGQLKVGHVILEVNGQTLRGKEHKEAARIIAEAFKTKERDYIDFLVTEFNVML
Take B3: the figures for the binding entry in experiment [2] and in experiment [3] were “no binding” and “binds”, respectively.
